Some of the results follow.
Legend:
Test in all cases: glycan array binding signal (z-score within array); higher = stronger binding
Conditions in all cases: glycan notation: IUPAC condensed, linker removed
[1] = target: Neu5Ac(a2-3)Gal6S(b1-4)[Fuc(a1-3)]GlcNAc
Method in brief: (§1)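 Columns mapping to the same glycan were averaged after glycan names were converted to IUPAC-condensed notation. The data come from 3228 arrays in the Consortium for Functional Glycomics database, limited to those with an available protein sequence. Binding is reported as a within-array Z-score averaged across arrays of one protein sequence and across linkers.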

Neu5Ac(a2-3)GalNAc = target: Neu5Ac(a2-3)GalNAc
Method in brief: as §1

[2] = target: Neu5Ac(a2-3)GalNAc(b1-4)GlcNAc
Method in brief: as §1

[3] = target: Neu5Ac(a2-3)[GalNAc(b1-4)]Gal(b1-4)Glc
Method in brief: as §1

[4] = target: Neu5Ac(a2-3)[GalNAc(b1-4)]Gal(b1-4)GlcNAc
Method in brief: as §1

[5] = target: Neu5Ac(a2-3)[GalNAc(b1-4)]Gal(b1-4)GlcNAc(b1-3)GalNAc
Method in brief: as §1

[6] = target: Neu5Ac(a2-3)[Neu5Ac(a2-6)]GalNAc
Method in brief: as §1

Neu5Ac(a2-6)Gal = target: Neu5Ac(a2-6)Gal
Method in brief: as §1

[7] = target: Neu5Ac(a2-6)Gal(b1-3)GlcNAc(b1-3)[Gal(b1-4)GlcNAc(b1-6)]Gal(b1-4)Glc
Method in brief: as §1

Neu5Ac(a2-6)Gal(b1-4)Glc = target: Neu5Ac(a2-6)Gal(b1-4)Glc
Method in brief: as §1

[8] = target: Neu5Ac(a2-6)Gal(b1-4)GlcNAc
Method in brief: as §1

[9] = target: Neu5Ac(a2-6)Gal(b1-4)GlcNAc(b1-2)Man
Method in brief: as §1

[10] = target: Neu5Ac(a2-6)Gal(b1-4)GlcNAc(b1-2)Man(a1-3)Man(b1-4)GlcNAc(b1-4)GlcNAc
Method in brief: as §1

[11] = target: Neu5Ac(a2-6)Gal(b1-4)GlcNAc(b1-2)Man(a1-3)[Gal(b1-4)GlcNAc(b1-2)Man(a1-6)]Man(b1-4)GlcNAc(b1-4)GlcNAc
Method in brief: as §1

[12] = target: Neu5Ac(a2-6)Gal(b1-4)GlcNAc(b1-2)Man(a1-3)[GlcNAc(b1-2)Man(a1-6)]Man(b1-4)GlcNAc(b1-4)GlcNAc
Method in brief: as §1

[13] = target: Neu5Ac(a2-6)Gal(b1-4)GlcNAc(b1-2)Man(a1-3)[GlcNAc(b1-4)][Neu5Ac(a2-6)Gal(b1-4)GlcNAc(b1-2)Man(a1-6)]Man(b1-4)GlcNAc(b1-4)GlcNAc
Method in brief: as §1

[14] = target: Neu5Ac(a2-6)Gal(b1-4)GlcNAc(b1-2)Man(a1-3)[Man(a1-6)]Man(b1-4)GlcNAc(b1-4)GlcNAc
Method in brief: as §1

[15] = target: Neu5Ac(a2-6)Gal(b1-4)GlcNAc(b1-2)Man(a1-3)[Neu5Ac(a2-3)Gal(b1-4)GlcNAc(b1-2)Man(a1-6)]Man(b1-4)GlcNAc(b1-4)GlcNAc
Method in brief: as §1

[16] = target: Neu5Ac(a2-6)Gal(b1-4)GlcNAc(b1-2)Man(a1-3)[Neu5Ac(a2-6)Gal(b1-4)GlcNAc(b1-2)Man(a1-6)]Man(b1-4)GlcNAc(b1-4)GlcNAc
Method in brief: as §1

[17] = target: Neu5Ac(a2-6)Gal(b1-4)GlcNAc(b1-2)Man(a1-3)[Neu5Ac(a2-6)Gal(b1-4)GlcNAc(b1-2)Man(a1-6)]Man(b1-4)GlcNAc(b1-4)[Fuc(a1-6)]GlcNAc
Method in brief: as §1

[18] = target: Neu5Ac(a2-6)Gal(b1-4)GlcNAc(b1-2)Man(a1-6)Man(b1-4)GlcNAc(b1-4)GlcNAc
Method in brief: as §1

[19] = target: Neu5Ac(a2-6)Gal(b1-4)GlcNAc(b1-2)Man(a1-6)[Gal(b1-4)GlcNAc(b1-2)Man(a1-3)]Man(b1-4)GlcNAc(b1-4)GlcNAc
Method in brief: as §1

[20] = target: Neu5Ac(a2-6)Gal(b1-4)GlcNAc(b1-2)Man(a1-6)[GlcNAc(b1-2)Man(a1-3)]Man(b1-4)GlcNAc(b1-4)GlcNAc
Method in brief: as §1

[21] = target: Neu5Ac(a2-6)Gal(b1-4)GlcNAc(b1-2)Man(a1-6)[Man(a1-3)]Man(b1-4)GlcNAc(b1-4)GlcNAc
Method in brief: as §1

[22] = target: Neu5Ac(a2-6)Gal(b1-4)GlcNAc(b1-2)[Neu5Ac(a2-6)Gal(b1-4)GlcNAc(b1-4)]Man(a1-3)[GlcNAc(b1-4)][Neu5Ac(a2-6)Gal(b1-4)GlcNAc(b1-2)[Neu5Ac(a2-6)Gal(b1-4)GlcNAc(b1-6)]Man(a1-6)]Man(b1-4)GlcNAc(b1-4)GlcNAc
Method in brief: as §1

[23] = target: Neu5Ac(a2-6)Gal(b1-4)GlcNAc(b1-2)[Neu5Ac(a2-6)Gal(b1-4)GlcNAc(b1-4)]Man(a1-3)[GlcNAc(b1-4)][Neu5Ac(a2-6)Gal(b1-4)GlcNAc(b1-4)Man(a1-6)]Man(b1-4)GlcNAc(b1-4)GlcNAc
Method in brief: as §1

[24] = target: Neu5Ac(a2-6)Gal(b1-4)GlcNAc(b1-2)[Neu5Ac(a2-6)Gal(b1-4)GlcNAc(b1-6)]Man(a1-6)[Neu5Ac(a2-6)Gal(b1-4)GlcNAc(b1-2)Man(a1-3)][GlcNAc(b1-4)]Man(b1-4)GlcNAc(b1-4)GlcNAc
Method in brief: as §1

[25] = target: Neu5Ac(a2-6)Gal(b1-4)GlcNAc(b1-3)Gal(b1-3)GlcNAc
Method in brief: as §1

[26] = target: Neu5Ac(a2-6)Gal(b1-4)GlcNAc(b1-3)Gal(b1-4)GlcNAc
Method in brief: as §1

[27] = target: Neu5Ac(a2-6)Gal(b1-4)GlcNAc(b1-3)Gal(b1-4)GlcNAc(b1-2)Man(a1-3)[Neu5Ac(a2-6)Gal(b1-4)GlcNAc(b1-3)Gal(b1-4)GlcNAc(b1-2)Man(a1-6)]GalNAc
Method in brief: as §1

[28] = target: Neu5Ac(a2-6)Gal(b1-4)GlcNAc(b1-3)Gal(b1-4)GlcNAc(b1-3)Gal(b1-4)GlcNAc
Method in brief: as §1

[29] = target: Neu5Ac(a2-6)Gal(b1-4)GlcNAc(b1-3)Gal(b1-4)GlcNAc(b1-3)Gal(b1-4)GlcNAc(b1-2)Man(a1-3)[Neu5Ac(a2-6)Gal(b1-4)GlcNAc(b1-3)Gal(b1-4)GlcNAc(b1-3)Gal(b1-4)GlcNAc(b1-2)Man(a1-6)]GalNAc
Method in brief: as §1

[30] = target: Neu5Ac(a2-6)Gal(b1-4)GlcNAc(b1-3)Gal(b1-4)GlcNAc(b1-3)GalNAc
Method in brief: as §1

[31] = target: Neu5Ac(a2-6)Gal(b1-4)GlcNAc(b1-3)Gal(b1-4)GlcNAc(b1-3)[Neu5Ac(a2-6)Gal(b1-4)GlcNAc(b1-3)Gal(b1-4)GlcNAc(b1-6)]GalNAc
Method in brief: as §1

[32] = target: Neu5Ac(a2-6)Gal(b1-4)GlcNAc(b1-3)Gal(b1-4)GlcNAc(b1-6)[Gal(b1-3)]GalNAc
Method in brief: as §1

[33] = target: Neu5Ac(a2-6)Gal(b1-4)GlcNAc(b1-3)Gal(b1-4)[Fuc(a1-3)]GlcNAc(b1-3)Gal(b1-4)[Fuc(a1-3)]GlcNAc
Method in brief: as §1

[34] = target: Neu5Ac(a2-6)Gal(b1-4)GlcNAc(b1-3)GalNAc
Method in brief: as §1

[35] = target: Neu5Ac(a2-6)Gal(b1-4)GlcNAc(b1-3)[Neu5Ac(a2-6)Gal(b1-4)GlcNAc(b1-6)]GalNAc
Method in brief: as §1

[36] = target: Neu5Ac(a2-6)Gal(b1-4)GlcNAc(b1-6)GalNAc
Method in brief: as §1

[37] = target: Neu5Ac(a2-6)Gal(b1-4)GlcNAc(b1-6)[Gal(b1-3)GlcNAc(b1-3)]Gal(b1-4)Glc
Method in brief: as §1

[38] = target: Neu5Ac(a2-6)Gal(b1-4)GlcNAc(b1-6)[Gal(b1-3)]GalNAc
Method in brief: as §1

[39] = target: Neu5Ac(a2-6)Gal(b1-4)GlcNAc6S
Method in brief: as §1

Neu5Ac(a2-6)GalNAc = target: Neu5Ac(a2-6)GalNAc
Method in brief: as §1

[40] = target: Neu5Ac(a2-6)GalNAc(b1-4)GlcNAc
Method in brief: as §1

[41] = target: Neu5Ac(a2-6)GalNAc(b1-4)GlcNAc6S
Method in brief: as §1

B1: Ovorubin (Pomacea canaliculata), J7I2T6 (protein)
chain: MFVATSLLLAIATLVVRASPHNYLIMDIEPPKSVSERDILNLLSPLQVKHSFRVTGSTRLLIVIRLDAQSYEKLDEITVPGKVEVIPAVNMADTMERCGVSWPRVELTDDNVTLFESESTLTDVTKEQLKAMLIGYGEHMSGLLQAHRFEYYQAAGATPHRHFVFVNSVPDEIEVFGREGVDIWGGPGEFVVKPQYVTRI
glycan array binding signal (z-score) [1]: 0.86
glycan array binding signal (z-score) (Neu5Ac(a2-3)GalNAc): 0.287
glycan array binding signal (z-score) [2]: -0.374
glycan array binding signal (z-score) [3]: -0.336
glycan array binding signal (z-score) [4]: -0.092
glycan array binding signal (z-score) [5]: -0.397
glycan array binding signal (z-score) [6]: 0.934
glycan array binding signal (z-score) (Neu5Ac(a2-6)Gal): 0.073
glycan array binding signal (z-score) [7]: -0.285
glycan array binding signal (z-score) (Neu5Ac(a2-6)Gal(b1-4)Glc): 0.014
glycan array binding signal (z-score) [8]: -0.191
glycan array binding signal (z-score) [9]: 0.654
glycan array binding signal (z-score) [10]: 0.036
glycan array binding signal (z-score) [11]: 0.133
glycan array binding signal (z-score) [12]: -1.23
glycan array binding signal (z-score) [13]: 0.487
glycan array binding signal (z-score) [14]: -1.01
glycan array binding signal (z-score) [15]: -0.478
glycan array binding signal (z-score) [16]: 0.177
glycan array binding signal (z-score) [17]: -0.129
glycan array binding signal (z-score) [18]: 0.429
glycan array binding signal (z-score) [19]: 0.032
glycan array binding signal (z-score) [20]: -0.738
glycan array binding signal (z-score) [21]: -0.358
glycan array binding signal (z-score) [22]: 3.19
glycan array binding signal (z-score) [23]: 0.349
glycan array binding signal (z-score) [24]: -0.646
glycan array binding signal (z-score) [25]: 0.712
glycan array binding signal (z-score) [26]: -0.75
glycan array binding signal (z-score) [27]: -0.502
glycan array binding signal (z-score) [28]: 0.311
glycan array binding signal (z-score) [29]: 3.06
glycan array binding signal (z-score) [30]: -0.625
glycan array binding signal (z-score) [31]: -0.008
glycan array binding signal (z-score) [32]: 0.024
glycan array binding signal (z-score) [33]: -0.228
glycan array binding signal (z-score) [34]: -0.017
glycan array binding signal (z-score) [35]: 0.114
glycan array binding signal (z-score) [36]: 0.155
glycan array binding signal (z-score) [37]: -0.737
glycan array binding signal (z-score) [38]: -0.793
glycan array binding signal (z-score) [39]: -1.32
glycan array binding signal (z-score) (Neu5Ac(a2-6)GalNAc): -0.977
glycan array binding signal (z-score) [40]: -0.745
glycan array binding signal (z-score) [41]: 0.474

Source: the supplement of paper PMC8728848
